According to publication PMC6553528, “An Interaction Network of the Human SEPT9 Established by Quantitative Mass Spectrometry” (G3: Genes|Genomes|Genetics, 2019):
Results are given in words; binding and its absence hold for the method and conditions named. In cells and extracts the contact can be indirect. These calls come from enrichment with a bait or labelling near it, and not all partners need be listed.

Amino acid sequences for entries named in this document (tags omitted). A change or cut given only in a name is not applied to a line headed by its entry. Residues count along the entry.
UniProt P13987: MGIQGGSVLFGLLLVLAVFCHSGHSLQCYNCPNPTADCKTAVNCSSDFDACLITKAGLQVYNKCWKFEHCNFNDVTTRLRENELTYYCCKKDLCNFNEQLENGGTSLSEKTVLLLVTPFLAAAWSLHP
UniProt Q9UBI6: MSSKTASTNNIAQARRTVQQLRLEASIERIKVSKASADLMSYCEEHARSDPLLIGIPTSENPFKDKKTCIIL
UniProt P08754: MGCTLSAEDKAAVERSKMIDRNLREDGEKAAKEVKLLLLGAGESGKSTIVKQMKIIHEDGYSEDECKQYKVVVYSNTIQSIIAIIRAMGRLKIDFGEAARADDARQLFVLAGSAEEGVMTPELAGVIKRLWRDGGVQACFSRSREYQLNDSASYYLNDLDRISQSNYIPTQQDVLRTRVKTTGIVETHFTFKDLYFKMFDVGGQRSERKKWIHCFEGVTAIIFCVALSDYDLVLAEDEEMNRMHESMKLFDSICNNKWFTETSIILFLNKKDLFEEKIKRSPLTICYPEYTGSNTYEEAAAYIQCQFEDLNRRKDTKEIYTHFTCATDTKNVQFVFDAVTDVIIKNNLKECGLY
UniProt Q9BX40: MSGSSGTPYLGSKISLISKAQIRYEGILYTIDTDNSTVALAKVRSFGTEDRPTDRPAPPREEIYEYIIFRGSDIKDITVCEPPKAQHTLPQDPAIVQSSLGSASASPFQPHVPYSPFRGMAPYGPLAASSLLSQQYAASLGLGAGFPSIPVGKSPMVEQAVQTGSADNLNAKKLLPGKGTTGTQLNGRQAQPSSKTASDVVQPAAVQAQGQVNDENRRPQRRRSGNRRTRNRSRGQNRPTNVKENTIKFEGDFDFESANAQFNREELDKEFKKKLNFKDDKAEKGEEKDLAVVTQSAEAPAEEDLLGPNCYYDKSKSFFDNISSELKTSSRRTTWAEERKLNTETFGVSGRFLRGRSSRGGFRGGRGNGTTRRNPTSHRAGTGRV
UniProt O00161: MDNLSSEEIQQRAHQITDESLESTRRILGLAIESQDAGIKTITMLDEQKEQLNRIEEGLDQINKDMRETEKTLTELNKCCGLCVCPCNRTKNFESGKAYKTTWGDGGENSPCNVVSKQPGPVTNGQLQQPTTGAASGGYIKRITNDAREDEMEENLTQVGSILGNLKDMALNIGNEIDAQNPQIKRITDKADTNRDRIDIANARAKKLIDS
UniProt P22105, residues 24-4244: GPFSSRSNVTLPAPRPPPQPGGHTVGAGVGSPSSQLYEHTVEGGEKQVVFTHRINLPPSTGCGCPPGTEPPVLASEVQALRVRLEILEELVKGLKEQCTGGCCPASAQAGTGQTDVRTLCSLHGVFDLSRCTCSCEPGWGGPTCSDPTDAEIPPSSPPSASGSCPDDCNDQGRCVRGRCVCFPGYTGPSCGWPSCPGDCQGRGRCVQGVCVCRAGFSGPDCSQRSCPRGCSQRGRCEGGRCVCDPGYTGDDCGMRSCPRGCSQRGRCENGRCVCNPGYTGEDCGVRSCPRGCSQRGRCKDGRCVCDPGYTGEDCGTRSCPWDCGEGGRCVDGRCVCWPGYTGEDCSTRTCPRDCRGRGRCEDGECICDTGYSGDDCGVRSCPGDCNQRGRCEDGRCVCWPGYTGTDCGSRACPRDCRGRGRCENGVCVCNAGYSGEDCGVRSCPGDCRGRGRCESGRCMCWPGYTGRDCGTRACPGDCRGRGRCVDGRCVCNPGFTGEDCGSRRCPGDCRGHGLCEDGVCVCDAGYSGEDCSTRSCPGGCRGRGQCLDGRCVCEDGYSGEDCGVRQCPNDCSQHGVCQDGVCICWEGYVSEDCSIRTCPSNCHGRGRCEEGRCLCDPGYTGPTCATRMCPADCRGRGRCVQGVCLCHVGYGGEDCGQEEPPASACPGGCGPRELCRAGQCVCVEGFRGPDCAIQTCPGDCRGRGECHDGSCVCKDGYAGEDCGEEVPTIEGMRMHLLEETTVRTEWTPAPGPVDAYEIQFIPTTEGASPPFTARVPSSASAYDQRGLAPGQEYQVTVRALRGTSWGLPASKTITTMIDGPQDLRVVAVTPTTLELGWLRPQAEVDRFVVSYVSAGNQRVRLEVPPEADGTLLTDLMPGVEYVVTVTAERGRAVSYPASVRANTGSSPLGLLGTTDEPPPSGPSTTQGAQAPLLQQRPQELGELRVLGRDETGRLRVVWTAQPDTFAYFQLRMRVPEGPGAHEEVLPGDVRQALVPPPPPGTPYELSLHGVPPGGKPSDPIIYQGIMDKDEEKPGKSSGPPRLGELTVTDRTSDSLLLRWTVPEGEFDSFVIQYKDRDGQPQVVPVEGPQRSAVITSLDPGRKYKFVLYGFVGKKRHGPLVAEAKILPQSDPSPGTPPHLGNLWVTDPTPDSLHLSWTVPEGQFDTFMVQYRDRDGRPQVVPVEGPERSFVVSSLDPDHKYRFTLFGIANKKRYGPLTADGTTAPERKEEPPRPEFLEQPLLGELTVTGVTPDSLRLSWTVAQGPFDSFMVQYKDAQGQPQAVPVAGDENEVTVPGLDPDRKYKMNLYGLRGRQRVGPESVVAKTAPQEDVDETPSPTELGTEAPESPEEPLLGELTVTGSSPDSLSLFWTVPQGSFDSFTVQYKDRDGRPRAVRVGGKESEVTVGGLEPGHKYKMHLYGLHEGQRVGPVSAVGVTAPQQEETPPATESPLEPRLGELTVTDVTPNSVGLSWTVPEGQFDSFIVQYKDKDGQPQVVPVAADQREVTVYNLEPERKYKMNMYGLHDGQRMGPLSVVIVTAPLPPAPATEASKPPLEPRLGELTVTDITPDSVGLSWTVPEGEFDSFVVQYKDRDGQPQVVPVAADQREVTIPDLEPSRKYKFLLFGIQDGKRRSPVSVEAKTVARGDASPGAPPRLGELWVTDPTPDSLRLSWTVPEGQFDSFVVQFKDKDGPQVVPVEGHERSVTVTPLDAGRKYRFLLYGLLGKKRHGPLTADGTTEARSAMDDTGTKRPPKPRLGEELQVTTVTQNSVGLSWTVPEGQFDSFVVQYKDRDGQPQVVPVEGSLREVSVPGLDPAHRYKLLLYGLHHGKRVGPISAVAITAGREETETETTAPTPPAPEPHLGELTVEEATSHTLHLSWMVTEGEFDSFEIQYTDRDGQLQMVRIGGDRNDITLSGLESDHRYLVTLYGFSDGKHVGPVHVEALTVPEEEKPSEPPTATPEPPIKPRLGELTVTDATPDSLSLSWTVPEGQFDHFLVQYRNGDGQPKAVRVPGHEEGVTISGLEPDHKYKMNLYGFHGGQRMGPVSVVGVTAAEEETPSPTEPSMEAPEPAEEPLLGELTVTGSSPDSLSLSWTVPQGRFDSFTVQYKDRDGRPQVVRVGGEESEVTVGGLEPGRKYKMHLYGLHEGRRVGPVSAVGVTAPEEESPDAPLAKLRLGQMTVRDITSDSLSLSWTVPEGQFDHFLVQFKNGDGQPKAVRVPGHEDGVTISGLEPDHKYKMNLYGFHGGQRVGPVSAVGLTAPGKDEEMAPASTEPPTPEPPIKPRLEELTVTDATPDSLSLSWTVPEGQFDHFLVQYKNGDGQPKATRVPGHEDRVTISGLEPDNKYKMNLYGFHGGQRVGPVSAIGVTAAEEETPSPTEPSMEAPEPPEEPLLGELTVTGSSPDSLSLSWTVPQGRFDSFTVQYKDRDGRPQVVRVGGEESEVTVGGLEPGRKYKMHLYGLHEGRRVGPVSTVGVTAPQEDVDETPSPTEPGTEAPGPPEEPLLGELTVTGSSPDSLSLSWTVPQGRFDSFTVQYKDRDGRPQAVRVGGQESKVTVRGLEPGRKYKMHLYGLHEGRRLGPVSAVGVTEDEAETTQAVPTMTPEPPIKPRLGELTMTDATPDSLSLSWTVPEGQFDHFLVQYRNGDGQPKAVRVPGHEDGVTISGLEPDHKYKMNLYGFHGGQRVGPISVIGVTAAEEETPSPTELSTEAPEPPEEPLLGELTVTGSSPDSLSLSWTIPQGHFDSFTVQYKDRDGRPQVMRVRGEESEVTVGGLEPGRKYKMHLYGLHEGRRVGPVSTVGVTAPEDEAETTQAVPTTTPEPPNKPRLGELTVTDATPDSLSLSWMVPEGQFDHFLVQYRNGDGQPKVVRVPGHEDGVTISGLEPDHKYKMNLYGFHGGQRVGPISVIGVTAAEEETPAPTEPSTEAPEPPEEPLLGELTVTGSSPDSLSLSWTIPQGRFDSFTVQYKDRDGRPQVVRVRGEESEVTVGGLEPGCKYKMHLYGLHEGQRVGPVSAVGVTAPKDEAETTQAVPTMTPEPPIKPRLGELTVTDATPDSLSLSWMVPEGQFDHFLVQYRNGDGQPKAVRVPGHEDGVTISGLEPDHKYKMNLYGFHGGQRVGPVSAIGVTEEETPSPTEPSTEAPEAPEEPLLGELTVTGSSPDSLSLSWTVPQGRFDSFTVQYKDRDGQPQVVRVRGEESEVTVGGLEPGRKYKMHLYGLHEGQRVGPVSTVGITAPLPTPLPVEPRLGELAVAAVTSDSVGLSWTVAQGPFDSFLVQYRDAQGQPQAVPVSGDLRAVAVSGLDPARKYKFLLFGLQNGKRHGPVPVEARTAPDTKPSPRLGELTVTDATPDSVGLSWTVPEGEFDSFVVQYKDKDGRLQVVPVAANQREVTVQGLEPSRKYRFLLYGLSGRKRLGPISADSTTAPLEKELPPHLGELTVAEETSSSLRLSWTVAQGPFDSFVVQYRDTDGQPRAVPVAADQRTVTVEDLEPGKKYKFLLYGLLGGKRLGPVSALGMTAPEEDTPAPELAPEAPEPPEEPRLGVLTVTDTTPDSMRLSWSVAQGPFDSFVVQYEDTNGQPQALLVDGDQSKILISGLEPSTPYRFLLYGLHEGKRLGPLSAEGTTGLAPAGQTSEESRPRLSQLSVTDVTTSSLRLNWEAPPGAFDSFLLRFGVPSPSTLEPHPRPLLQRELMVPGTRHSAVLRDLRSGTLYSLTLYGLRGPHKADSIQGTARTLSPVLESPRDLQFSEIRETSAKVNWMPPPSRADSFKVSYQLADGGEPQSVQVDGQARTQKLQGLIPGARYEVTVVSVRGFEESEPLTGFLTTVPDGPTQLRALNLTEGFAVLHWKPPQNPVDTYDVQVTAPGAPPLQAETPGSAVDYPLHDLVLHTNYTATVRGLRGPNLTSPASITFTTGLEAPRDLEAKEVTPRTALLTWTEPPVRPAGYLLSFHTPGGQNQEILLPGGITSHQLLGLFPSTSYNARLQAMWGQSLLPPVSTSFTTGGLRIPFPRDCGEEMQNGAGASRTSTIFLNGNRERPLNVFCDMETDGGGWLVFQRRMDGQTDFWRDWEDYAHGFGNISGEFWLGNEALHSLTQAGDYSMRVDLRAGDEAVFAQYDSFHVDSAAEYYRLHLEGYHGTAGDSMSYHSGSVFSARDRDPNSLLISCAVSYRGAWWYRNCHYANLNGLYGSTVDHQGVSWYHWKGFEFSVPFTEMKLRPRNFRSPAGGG
UniProt O43795: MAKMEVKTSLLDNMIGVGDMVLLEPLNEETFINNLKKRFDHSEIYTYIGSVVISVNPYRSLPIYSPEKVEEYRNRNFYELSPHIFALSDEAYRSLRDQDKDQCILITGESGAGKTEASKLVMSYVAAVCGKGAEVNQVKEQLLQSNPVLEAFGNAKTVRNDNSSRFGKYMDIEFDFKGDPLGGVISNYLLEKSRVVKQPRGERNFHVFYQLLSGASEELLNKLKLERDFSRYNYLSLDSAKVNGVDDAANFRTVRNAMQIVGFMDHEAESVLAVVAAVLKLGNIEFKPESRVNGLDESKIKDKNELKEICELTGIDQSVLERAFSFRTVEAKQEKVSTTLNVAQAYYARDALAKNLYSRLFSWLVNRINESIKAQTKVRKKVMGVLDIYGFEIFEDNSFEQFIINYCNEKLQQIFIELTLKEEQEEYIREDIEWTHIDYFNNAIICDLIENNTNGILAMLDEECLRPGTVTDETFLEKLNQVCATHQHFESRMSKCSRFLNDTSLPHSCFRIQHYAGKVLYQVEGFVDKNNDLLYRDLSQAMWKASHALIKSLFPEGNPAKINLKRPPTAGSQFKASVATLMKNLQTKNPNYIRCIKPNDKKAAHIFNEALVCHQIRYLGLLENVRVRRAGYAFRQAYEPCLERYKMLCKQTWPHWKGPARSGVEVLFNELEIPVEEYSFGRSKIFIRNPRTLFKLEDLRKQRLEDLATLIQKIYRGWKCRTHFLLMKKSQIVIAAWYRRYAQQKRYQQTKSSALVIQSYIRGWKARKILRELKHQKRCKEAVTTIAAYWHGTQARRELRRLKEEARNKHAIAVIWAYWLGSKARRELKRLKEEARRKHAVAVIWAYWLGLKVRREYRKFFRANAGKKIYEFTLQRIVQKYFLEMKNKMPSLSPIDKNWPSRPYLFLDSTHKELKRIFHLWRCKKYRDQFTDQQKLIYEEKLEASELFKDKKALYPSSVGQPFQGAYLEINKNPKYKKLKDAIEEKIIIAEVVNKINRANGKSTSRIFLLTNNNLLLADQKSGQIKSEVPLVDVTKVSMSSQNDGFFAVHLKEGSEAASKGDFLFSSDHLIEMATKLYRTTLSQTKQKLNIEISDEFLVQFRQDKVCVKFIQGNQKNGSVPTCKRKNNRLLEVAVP

B1: Ras-related protein R-Ras (protein, UniProt P10301 1-218)
chain: MSSGAASGTGRGRPRGGGPGPGDPPPSETHKLVVVGGGGVGKSALTIQFIQSYFVSDYDPTIEDSYTKICSVDGIPARLDILDTAGQEEFGAMREQYMRAGHGFLLVFAINDRQSFNEVGKLFTQILRVKDRDDFPVVLVGNKADLESQRQVPRSEASAFGASHHVAYFEASAKLRLNVDEAFEQLVRAVRKYQEQELPPSPPSAPRKKGGGCPCVLL
B2: Lipase member I (protein, UniProt Q6XZB0 16-460)
chain: DNKRPCLEFSQLSVKDSFRDLFIPRIETILMMYTRNNLNCAEPLFEQNNSLNVNFNTQKKTVWLIHGYRPVGSIPLWLQNFVRILLNEEDMNVIVVDWSRGATTFIYNRAVKNTRKVAVSLSVHIKNLLKHGASLDNFHFIGVSLGAHISGFVGKIFHGQLGRITGLDPAGPRFSRKPPYSRLDYTDAKFVDVIHSDSNGLGIQEPLGHIDFYPNGGNKQPGCPKSIFSGIQFIKCNHQRAVHLFMASLETNCNFISFPCRSYKDYKTSLCVDCDCFKEKSCPRLGYQAKLFKGVLKERMEGRPLRTTVFLDTSGTYPFCTYYFVLSIIVPDKTMMDGSFSFKLLNQLGMIEEPRLYEKNKPFYKLQEVKILAQFYNDFVNISSIGLTYFQSSNLQCSTCTYKIQSLMLKSLTYPERPPLCRYNIVLKDREEVFLNPNTCTPKNT
B3: Ras GTPase-activating protein 2 (protein, UniProt Q15283 1-850)
chain: MAAAAPAAAAASSEAPAASATAEPEAGDQDSREVRVLQSLRGKICEAKNLLPYLGPHKMRDCFCTINLDQEEVYRTQVVEKSLSPFFSEEFYFEIPRTFQYLSFYVYDKNVLQRDLRIGKVAIKKEDLCNHSGKETWFSLQPVDSNSEVQGKVHLELKLNELITENGTVCQQLVVHIKACHGLPLINGQSCDPYATVSLVGPSRNDQKKTKVKKKTSNPQFNEIFYFEVTRSSSYTRKSQFQVEEEDIEKLEIRIDLWNNGNLVQDVFLGEIKVPVNVLRTDSSHQAWYLLQPRDNGNKSSKTDDLGSLRLNICYTEDYVLPSEYYGPLKTLLLKSPDVQPISASAAYILSEICRDKNDAVLPLVRLLLHHDKLVPFATAVAELDLKDTQDANTIFRGNSLATRCLDEMMKIVGGHYLKVTLKPILDEICDSSKSCEIDPIKLKEGDNVENNKENLRYYVDKLFNTIVKSSMSCPTVMCDIFYSLRQMATQRFPNDPHVQYSAVSSFVFLRFFAVAVVSPHTFHLRPHHPDAQTIRTLTLISKTIQTLGSWGSLSKSKSSFKETFMCEFFKMFQEEGYIIAVKKFLDEISSTETKESSGTSEPVHLKEGEMYKRAQGRTRIGKKNFKKRWFCLTSRELTYHKQPGSKDAIYTIPVKNILAVEKLEESSFNKKNMFQVIHTEKPLYVQANNCVEANEWIDVLCRVSRCNQNRLSFYHPSVYLNGNWLCCQETGENTLGCKPCTAGVPADIQIDIDEDRETERIYSLFTLSLLKLQKMEEACGTIAVYQGPQKEPDDYSNFVIEDSVTTFKTIQQIKSIIEKLDEPHEKYRKKRSSSAKYGSKENPIVGKAS
B4: RNA-binding protein 27 (protein, UniProt Q9P2N5 1-1060)
chain: MLIEDVDALKSWLAKLLEPICDADPSALANYVVALVKKDKPEKELKAFCADQLDVFLQKETSGFVDKLFESLYTKNYLPLLEPVKPEPKPLVQEKEEIKEEVFQEPAEEERDGRKKKYPSPQKTRSESSERRTREKKREDGKWRDYDRYYERNELYREKYDWRRGRSKSRSKSRGLSRSRSRSRGRSKDRDPNRNVEHRERSKFKSERNDLESSYVPVSAPPPNSSEQYSSGAQSIPSTVTVIAPAHHSENTTESWSNYYNNHSSSNSFGRNLPPKRRCRDYDERGFCVLGDLCQFDHGNDPLVVDEVALPSMIPFPPPPPGLPPPPPPGMLMPPMPGPGPGPGPGPGPGPGPGPGPGHSMRLPVPQGHGQPPPSVVLPIPRPPITQSSLINSRDQPGTSAVPNLASVGTRLPPPLPQNLLYTVSERQPMYSREHGAAASERLQLGTPPPLLAARLVPPRNLMGSSIGYHTSVSSPTPLVPDTYEPDGYNPEAPSITSSGRSQYRQFFSRTQTQRPNLIGLTSGDMDVNPRAANIVIQTEPPVPVSINSNITRVVLEPDSRKRAMSGLEGPLTKKPWLGKQGNNNQNKPGFLRKNQYTNTKLEVKKIPQELNNITKLNEHFSKFGTIVNIQVAFKGDPEAALIQYLTNEEARKAISSTEAVLNNRFIRVLWHRENNEQPTLQSSAQLLLQQQQTLSHLSQQHHHLPQHLHQQQVLVAQSAPSTVHGGIQKMMSKPQTSGAYVLNKVPVKHRLGHAGGNQSDASHLLNQSGGAGEDCQIFSTPGHPKMIYSSSNLKTPSKLCSGSKSHDVQEVLKKKQEAMKLQQDMRKKRQEVLEKQIECQKMLISKLEKNKNMKPEERANIMKTLKELGEKISQLKDELKTSSAVSTPSKVKTKTEAQKELLDTELDLHKRLSSGEDTTELRKKLSQLQVEAARLGILPVGRGKTMSSQGRGRGRGRGGRGRGSLNHMVVDHRPKALTVGGFIEEEKEDLLQHFSTANQGPKFKDRRLQISWHKPKVPSISTETEEEEVKEEETETSDLFLPDDDDEDEDEYESRSWRR
B5: Septin-8 (protein, UniProt Q92599 1-483)
chain: MAATDLERFSNAEPEPRSLSLGGHVGFDSLPDQLVSKSVTQGFSFNILCVGETGIGKSTLMNTLFNTTFETEEASHHEACVRLRPQTYDLQESNVQLKLTIVDAVGFGDQINKDESYRPIVDYIDAQFENYLQEELKIRRSLFDYHDTRIHVCLYFITPTGHSLKSLDLVTMKKLDSKVNIIPIIAKADTISKSELHKFKIKIMGELVSNGVQIYQFPTDDEAVAEINAVMNAHLPFAVVGSTEEVKVGNKLVRARQYPWGVVQVENENHCDFVKLREMLIRVNMEDLREQTHSRHYELYRRCKLEEMGFQDSDGDSQPFSLQETYEAKRKEFLSELQRKEEEMRQMFVNKVKETELELKEKERELHEKFEHLKRVHQEEKRKVEEKRRELEEETNAFNRRKAAVEALQSQALHATSQQPLRKDKDKKNRSDIGAHQPGMSLSSSKVMMTKASVEPLNCSSWWPAIQCCSCLVRDATWREGFL
B6: Phostensin (protein, UniProt Q6NYC8 1-613)
chain: MATIPDWKLQLLARRRQEEASVRGREKAERERLSQMPAWKRGLLERRRAKLGLSPGEPSPVLGTVEAGPPDPDESAVLLEAIGPVHQNRFIRQERQQQQQQQQRSEELLAERKPGPLEARERRPSPGEMRDQSPKGRESREERLSPRETRERRLGIGGAQELSLRPLEARDWRQSPGEVGDRSSRLSEAWKWRLSPGETPERSLRLAESREQSPRRKEVESRLSPGESAYQKLGLTEAHKWRPDSRESQEQSLVQLEATEWRLRSGEERQDYSEECGRKEEWPVPGVAPKETAELSETLTREAQGNSSAGVEAAEQRPVEDGERGMKPTEGWKWTLNSGKAREWTPRDIEAQTQKPEPPESAEKLLESPGVEAGEGEAEKEEAGAQGRPLRALQNCCSVPSPLPPEDAGTGGLRQQEEEAVELQPPPPAPLSPPPPAPTAPQPPGDPLMSRLFYGVKAGPGVGAPRRSGHTFTVNPRRSVPPATPATPTSPATVDAAVPGAGKKRYPTAEEILVLGGYLRLSRSCLAKGSPERHHKQLKISFSETALETTYQYPSESSVLEELGPEPEVPSAPNPPAAQPDDEEDEEELLLLQPELQGGLRTKALIVDESCRR

biological target: T1, TAP-SEPT9_i1 (human) (UniProt Q9UHD8); assay: affinity purification with mass spectrometry; TAP-SEPT9 captured on human IgG-Sepharose from the cytoplasmic lysate of SILAC-labelled 1306 fibroblasts (overnight, 4 degrees); mixing after purification with the eluate of unlabelled GFP-SEPT9 cells as control; three replicates; hits by LOG2(H/L)>2 and Significance B
T1 sequence: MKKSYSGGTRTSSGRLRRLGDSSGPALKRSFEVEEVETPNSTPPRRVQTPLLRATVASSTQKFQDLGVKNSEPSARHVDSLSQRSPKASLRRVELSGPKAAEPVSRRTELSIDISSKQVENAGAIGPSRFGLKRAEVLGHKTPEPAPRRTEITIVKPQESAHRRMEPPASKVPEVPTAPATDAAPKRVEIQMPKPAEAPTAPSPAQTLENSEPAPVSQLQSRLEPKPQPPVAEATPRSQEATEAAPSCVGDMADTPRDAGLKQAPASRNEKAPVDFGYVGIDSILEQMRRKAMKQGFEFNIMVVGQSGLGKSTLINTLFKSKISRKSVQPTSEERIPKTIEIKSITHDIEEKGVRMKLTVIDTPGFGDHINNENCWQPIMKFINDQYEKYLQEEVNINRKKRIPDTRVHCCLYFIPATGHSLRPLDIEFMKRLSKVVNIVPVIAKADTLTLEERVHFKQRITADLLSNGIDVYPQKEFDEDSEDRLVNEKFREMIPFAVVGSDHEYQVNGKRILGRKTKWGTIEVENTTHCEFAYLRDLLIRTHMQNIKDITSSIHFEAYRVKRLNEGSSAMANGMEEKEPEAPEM

Molecule	binding
Alpha-actinin-4 (from UniProt O43707 1-911)	binds
Aminopeptidase N (from UniProt P15144 1-967)	binds
CD59 glycoprotein (from UniProt P13987)	binds
CD109 antigen (from UniProt Q6YHK3 22-1420)	binds
Caveolin-1;Caveolin (from UniProt Q03135 1-178)	binds
Copine-2 (from UniProt Q96FN4 1-548)	binds
Exocyst complex component 8 (from UniProt Q8IYI6 1-725)	binds
Fanconi anemia group I protein (from UniProt Q9NVI1 1-1328)	binds
Guanine nucleotide-binding protein G(I)/G(S)/G(O) subunit gamma-12 (from UniProt Q9UBI6 1-72)	binds
Guanine nucleotide-binding protein G(k) subunit alpha (from UniProt P08754 1-354)	binds
Intercellular adhesion molecule 1 (from UniProt P05362 28-532)	binds
LIM domain and actin-binding protein 1 (from UniProt Q9UHB6 1-759)	binds
Little elongation complex subunit 1 (from UniProt Q9Y2F5 1-2266)	binds
Myosin light chain kinase (from UniProt Q15746 1-1914)	binds
Myosin-10 (from UniProt P35580 1-1976)	binds
Protein LSM14 homolog A (from UniProt Q8ND56 1-463)	binds

Molecule	binding
Protein LSM14 homolog B (from UniProt Q9BX40 1-385)	binds
Protein kinase C alpha type (from UniProt P17252 1-672)	binds
Stimulator of interferon genes protein (from UniProt Q86WV6 1-379)	binds
Synaptosomal-associated protein 23 (from UniProt O00161 1-211)	binds
Tenascin-X (from UniProt P22105 24-4244)	binds
Unconventional myosin-Ib (from UniProt O43795 1-1136)	binds
Unconventional myosin-VI (from UniProt Q9UM54 1-1294)	binds
Zinc finger protein 106 (from UniProt Q9H2Y7 1-1883)	binds
Zinc finger protein 185 (from UniProt O15231 1-689)	binds
B1	binds
B2	binds
B3	binds
B4	binds
B5	binds
B6	binds
